The results in this text go back to article PMC6614843.

By UniProt entry, the sequences of proteins in these tests, tags left out.
UniProt P18887: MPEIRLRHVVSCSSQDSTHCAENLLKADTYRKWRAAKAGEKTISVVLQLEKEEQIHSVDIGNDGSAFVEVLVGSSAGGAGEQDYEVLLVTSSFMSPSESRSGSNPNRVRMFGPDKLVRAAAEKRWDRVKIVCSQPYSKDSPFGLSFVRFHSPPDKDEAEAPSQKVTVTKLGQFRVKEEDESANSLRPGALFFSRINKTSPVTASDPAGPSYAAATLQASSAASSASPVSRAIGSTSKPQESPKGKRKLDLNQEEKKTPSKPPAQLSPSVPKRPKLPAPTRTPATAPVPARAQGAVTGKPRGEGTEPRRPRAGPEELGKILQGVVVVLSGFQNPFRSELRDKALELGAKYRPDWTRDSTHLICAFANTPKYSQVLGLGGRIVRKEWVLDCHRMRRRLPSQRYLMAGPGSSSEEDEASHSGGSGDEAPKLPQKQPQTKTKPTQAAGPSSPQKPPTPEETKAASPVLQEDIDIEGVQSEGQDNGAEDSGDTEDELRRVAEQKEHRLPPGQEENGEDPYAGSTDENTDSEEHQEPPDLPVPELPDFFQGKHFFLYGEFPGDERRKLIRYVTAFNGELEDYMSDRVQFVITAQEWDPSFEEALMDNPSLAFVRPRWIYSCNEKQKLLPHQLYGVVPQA
UniProt P09874: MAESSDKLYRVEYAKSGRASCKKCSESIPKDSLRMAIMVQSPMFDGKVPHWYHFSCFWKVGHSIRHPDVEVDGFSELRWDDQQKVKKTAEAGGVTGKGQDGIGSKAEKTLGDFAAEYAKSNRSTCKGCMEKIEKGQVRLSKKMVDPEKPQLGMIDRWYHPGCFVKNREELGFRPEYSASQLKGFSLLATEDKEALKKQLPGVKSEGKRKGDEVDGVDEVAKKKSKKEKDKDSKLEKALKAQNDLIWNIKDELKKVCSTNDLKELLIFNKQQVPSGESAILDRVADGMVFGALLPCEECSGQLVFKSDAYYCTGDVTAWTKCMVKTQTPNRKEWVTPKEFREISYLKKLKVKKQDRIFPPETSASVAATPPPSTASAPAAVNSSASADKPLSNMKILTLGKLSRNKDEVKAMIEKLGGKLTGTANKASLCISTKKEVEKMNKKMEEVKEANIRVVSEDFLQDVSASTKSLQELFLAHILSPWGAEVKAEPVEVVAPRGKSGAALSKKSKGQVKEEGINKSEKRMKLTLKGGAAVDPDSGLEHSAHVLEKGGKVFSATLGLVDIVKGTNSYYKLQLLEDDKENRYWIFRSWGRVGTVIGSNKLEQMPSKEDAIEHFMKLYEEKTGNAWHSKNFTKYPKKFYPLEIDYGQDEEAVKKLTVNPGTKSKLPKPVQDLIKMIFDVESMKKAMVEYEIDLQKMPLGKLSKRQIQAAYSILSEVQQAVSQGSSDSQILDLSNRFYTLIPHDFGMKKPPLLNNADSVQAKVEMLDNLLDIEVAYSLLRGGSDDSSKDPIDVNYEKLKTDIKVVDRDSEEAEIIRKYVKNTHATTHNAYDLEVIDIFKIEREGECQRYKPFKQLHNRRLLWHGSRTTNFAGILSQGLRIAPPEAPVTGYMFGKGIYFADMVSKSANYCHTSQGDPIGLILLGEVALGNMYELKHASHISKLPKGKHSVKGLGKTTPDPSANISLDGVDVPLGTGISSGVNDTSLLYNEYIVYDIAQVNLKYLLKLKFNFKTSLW

This assay has as its target GST-NQO1 (UniProt P15559). Kind of assay: pull-down; GST-Polβ, GST-Polβ mutants, GST-NQO1, GST-NQO1(Y128F) or GST-EGFP on glutathione-agarose incubated 4 h with cell lysate (methods: HCT116; legends: LN428, T98G); cells untreated or treated with dicumarol (400 μM, 5 h) or H2O2 (150 μM, 0-3 h; 0-250 μM, 3 h); immunoblot; only the target purified.

Results are given in words; binding and its absence hold for the method and conditions named. In cells and extracts the contact can be indirect. Some binding calls cover weakened binding; strength is not graded here.

Take “XRCC1 (endogenous) (from UniProt P18887 1-633)”: the binding entry is given as “binds”.

For the substance “PARP1 (endogenous) (from UniProt P09874 1-1014)”, the binding entry is “binds”.
